These are yes or no findings as the source states them, for the method shown. Some entries that bind do so weakly or less than the wild type.

Chains of the proteins cited; added tags and fusions are not shown. Residues count along the entry.
UniProt P30886, residues 283-426: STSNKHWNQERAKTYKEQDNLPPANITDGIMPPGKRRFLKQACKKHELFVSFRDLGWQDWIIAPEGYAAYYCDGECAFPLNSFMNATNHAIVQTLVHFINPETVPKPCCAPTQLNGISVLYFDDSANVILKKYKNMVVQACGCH

We go through two molecules from EP0626451A2.

Experiment [1] addresses xBMP7 subunit (reduced monomer, bands of about 23 to 24 K and about 21 K) (Xenopus laevis) (UniProt P30886). In words: SDS-PAGE under non-reducing against reducing conditions.
The target is the same in experiment [2]. Put plainly: SDS-PAGE under non-reducing against reducing conditions with Western blot; 36 K band gives xBMP4 and xBMP7 bands on reduction. (In general: Immunoblotting shows a protein as a band on a membrane.)
Experiment [3] concerns the target xBMP4 subunit (reduced monomer, bands of about 19 K and about 17.5 K) (Xenopus laevis) (UniProt P30885). Put plainly: SDS-PAGE under non-reducing against reducing conditions.

With “xBMP7 subunit (reduced monomer, bands of about 23 to 24 K and about 21 K) (from UniProt P30886 283-426) (ligand)”, the binding result in experiment [1] is recorded as “binds”.

B1: xBMP4 subunit (reduced monomer, bands of about 19 K and about 17.5 K) (ligand, Xenopus laevis, UniProt P30885 288-401, looked up)
chain: SPKQQRPRKKNKHCRRHSLYVDFSDVGWNDWIVAPPGYQAFYCHGDCPFPLADHLNSTNHAIVQTLVNSVNSSIPKACCVPTELSAISMLYLDEYDKVVLKNYQEMVVEGCGCR
With B1, the binding entry in experiment [2] and in experiment [3] was “binds” throughout.
